Assay results: publication PMC8274477
These are yes or no findings as the source states them, for the method shown. Some entries that bind do so weakly or less than the wild type.

The chains behind the UniProt entries cited, without tags or fusion partners.
UniProt P50552: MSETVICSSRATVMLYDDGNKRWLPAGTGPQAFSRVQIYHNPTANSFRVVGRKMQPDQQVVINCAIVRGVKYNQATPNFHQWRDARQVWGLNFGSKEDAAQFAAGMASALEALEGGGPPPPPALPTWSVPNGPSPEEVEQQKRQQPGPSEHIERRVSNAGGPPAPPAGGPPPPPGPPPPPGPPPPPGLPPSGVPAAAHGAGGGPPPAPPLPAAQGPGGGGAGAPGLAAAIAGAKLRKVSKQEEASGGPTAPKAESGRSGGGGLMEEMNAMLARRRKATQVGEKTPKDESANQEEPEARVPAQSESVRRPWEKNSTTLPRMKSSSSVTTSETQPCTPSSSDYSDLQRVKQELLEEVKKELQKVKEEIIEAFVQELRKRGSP
UniProt O00338: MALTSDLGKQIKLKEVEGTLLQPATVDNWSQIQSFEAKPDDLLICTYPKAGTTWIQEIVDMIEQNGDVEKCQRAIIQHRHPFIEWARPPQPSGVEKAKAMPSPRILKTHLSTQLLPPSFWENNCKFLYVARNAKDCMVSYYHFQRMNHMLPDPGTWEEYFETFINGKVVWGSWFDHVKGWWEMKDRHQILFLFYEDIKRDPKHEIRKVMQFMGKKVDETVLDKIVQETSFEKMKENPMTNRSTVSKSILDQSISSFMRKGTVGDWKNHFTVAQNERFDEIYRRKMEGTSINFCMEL
UniProt P26196: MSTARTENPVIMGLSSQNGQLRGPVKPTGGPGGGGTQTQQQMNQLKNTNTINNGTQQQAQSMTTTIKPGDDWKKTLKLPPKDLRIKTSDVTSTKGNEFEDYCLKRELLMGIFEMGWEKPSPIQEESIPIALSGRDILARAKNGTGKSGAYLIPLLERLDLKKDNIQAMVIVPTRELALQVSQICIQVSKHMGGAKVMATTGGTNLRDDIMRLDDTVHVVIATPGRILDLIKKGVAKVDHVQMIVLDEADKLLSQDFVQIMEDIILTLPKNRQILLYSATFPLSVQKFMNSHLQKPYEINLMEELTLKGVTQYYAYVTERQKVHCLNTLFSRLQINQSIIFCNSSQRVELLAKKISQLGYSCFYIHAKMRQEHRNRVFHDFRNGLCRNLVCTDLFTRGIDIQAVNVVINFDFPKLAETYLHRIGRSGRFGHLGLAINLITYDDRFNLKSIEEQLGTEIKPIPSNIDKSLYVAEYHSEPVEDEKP
UniProt P50461: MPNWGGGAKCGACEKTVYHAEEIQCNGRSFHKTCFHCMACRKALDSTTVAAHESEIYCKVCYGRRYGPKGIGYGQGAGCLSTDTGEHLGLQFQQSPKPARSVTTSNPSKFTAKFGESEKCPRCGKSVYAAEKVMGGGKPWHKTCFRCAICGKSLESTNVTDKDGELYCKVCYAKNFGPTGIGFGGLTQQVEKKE

Columns and labels:
Experiment in all cases: peptide or protein array; HuProt human proteome microarray; 5 ug/5 ml biotin-labelled LUBAC or OTULIN in solution, 1 h at room temperature; Cy5-streptavidin, scanned at 635 nm; BSA as negative control; hits: Z-score >= 3 and I_(Mean_Ratio) >= 1.4; both purified
BPHL (human) = target: T1, BPHL (human) (UniProt Q86WA6)
T1 sequence: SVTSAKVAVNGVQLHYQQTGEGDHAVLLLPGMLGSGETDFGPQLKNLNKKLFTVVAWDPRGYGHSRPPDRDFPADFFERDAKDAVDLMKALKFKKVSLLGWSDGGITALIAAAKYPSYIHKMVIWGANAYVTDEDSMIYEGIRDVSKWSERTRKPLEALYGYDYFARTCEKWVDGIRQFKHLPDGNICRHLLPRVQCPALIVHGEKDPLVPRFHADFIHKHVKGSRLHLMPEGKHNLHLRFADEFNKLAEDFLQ

HOMER3 (human) = HOMER3 (human) (UniProt Q9NSC5)
VASP (human) = VASP (human) (UniProt P50552)
SULT1C2 (human) = SULT1C2 (human) (UniProt O00338)
SGK494 (human) = target: T2, SGK494 (human) (UniProt Q96LW2)
T2 sequence: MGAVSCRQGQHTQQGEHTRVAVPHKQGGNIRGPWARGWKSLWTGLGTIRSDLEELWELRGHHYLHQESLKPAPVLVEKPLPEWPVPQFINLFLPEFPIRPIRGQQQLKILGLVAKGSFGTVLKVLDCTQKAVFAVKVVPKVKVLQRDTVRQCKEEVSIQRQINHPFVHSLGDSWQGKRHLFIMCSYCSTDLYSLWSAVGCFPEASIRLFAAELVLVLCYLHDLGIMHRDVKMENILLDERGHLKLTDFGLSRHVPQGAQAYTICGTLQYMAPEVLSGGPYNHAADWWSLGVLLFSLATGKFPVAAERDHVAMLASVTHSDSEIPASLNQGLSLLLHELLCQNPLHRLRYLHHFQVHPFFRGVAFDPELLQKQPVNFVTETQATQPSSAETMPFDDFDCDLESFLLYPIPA

ASS1 (human) = target: T3, ASS1 (human) (UniProt P00966)
T3 sequence: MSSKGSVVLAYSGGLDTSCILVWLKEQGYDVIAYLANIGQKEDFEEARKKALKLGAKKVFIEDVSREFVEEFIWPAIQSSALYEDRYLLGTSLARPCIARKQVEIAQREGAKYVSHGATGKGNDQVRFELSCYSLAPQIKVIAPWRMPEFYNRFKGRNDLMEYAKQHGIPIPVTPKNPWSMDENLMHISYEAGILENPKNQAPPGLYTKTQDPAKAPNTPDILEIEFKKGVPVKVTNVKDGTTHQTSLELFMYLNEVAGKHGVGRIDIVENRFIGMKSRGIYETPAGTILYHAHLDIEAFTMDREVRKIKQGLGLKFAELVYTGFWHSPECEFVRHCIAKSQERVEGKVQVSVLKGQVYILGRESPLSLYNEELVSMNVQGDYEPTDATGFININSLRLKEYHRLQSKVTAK

ADAT3 (human) = target: T4, ADAT3 (human) (UniProt Q96EY9)
T4 sequence: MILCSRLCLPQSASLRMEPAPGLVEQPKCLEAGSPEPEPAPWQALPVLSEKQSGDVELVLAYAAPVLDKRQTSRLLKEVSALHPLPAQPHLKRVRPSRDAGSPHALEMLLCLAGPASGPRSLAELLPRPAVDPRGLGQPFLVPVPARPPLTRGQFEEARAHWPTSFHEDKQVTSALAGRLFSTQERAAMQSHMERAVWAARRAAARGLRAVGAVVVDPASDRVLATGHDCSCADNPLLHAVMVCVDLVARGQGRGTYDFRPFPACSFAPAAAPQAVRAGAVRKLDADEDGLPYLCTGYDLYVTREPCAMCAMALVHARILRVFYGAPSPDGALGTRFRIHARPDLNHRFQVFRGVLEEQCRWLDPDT

[1] = target: DDX6 (spot on the microarray) (human) (UniProt P26196)
CSRP3 (human) = CSRP3 (human) (UniProt P50461)

Measured: binding

linear ubiquitin chain assembly complex (LUBAC), purified as HIS-tagged HOIP with the subunit HOIL-1, biotin-labelled (from UniProt Q96EP0 1-1072; Q9BYM8 1-510)
binds: all assays above
